{"sequences": {"note": "By UniProt entry, the sequences of proteins in these tests, tags left out. Residues count along the entry.", "UniProt Q15116, residues 25-167": "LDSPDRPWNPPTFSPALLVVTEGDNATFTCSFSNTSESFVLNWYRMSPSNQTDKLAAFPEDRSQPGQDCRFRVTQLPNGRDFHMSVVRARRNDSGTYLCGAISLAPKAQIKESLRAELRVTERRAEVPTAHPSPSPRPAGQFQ"}, "source": "patent US20220249640A1", "target": "PD-1 (soluble, biotinylated, on sensors or coated on plates) (human) (UniProt Q15116)", "assay": "Octet, SA sensors coated with biotinylated PD-1, IgG format", "note": "Results are given in words; binding and its absence hold for the method and conditions named. Some entries that bind do so weakly or less than the wild type.", "data": [{"binder": "P4-B3 IgG1 wild type monomer (antibody, V domains shown) VH: QVQLVQSGGGLVQPGRSLRLSCAASGFTFDDYAMHWVRQAPGKGLEWVSGISWNSGSIGYADSVKGRFTVSRDNAKNSLYLQMNSLRAEDTAVYYCASDYGDKYYYYGMDVWGKGTTVTVSS VL: QPGLTQPPSASGTPGQRVTISCSGSSSNIGSNTVNWYQQFPGKAPKLLIFNDNQRPSGVPDRFSASKSGTSASLAISGLQSEDEADYYCAAWDGGLNGRGVFGGGTKLTVLG", "values": [{"measurement": "binding", "value": "binds"}]}]}
